{"source": "PubChem BioAssay AID540276", "about": "(National Center for Advancing Translational Sciences (NCATS), 2011)", "note": "“And” between values parts separate entries of the source, which are not always exact repeats. Equal entries are not always repeated. The whole screen tested about 300,000 compounds, of which about 5,400 (1.8%) were called active. This list was built around the results that the source calls inconclusive (neither active nor inactive); the mix of calls is not that of the screen. Calls come from the whole dose curve; tested in HEK293 cells. Potencies beside an inconclusive call are fits to weak or partial responses and may not hold up. Potency is the fitted concentration of half-maximal effect.", "data": [{"assay": "qHTS for inhibitors of binding or entry into cells for Marburg Virus", "conditions": "Marburg virus pseudotyped entry inhibition, cell reporter; series mostly up to 37.8 µM", "values": [{"smiles": "Cc1ccc(-c2nn(CCC(N)=O)c(=O)c3ccccc23)cc1", "Potency": "inactive and inconclusive: 891 nM [inhibitor, full curve, poor fit]"}, {"smiles": "Cc1ccc2[nH]c(=O)c(CN(CCc3ccccc3)C(c3nnnn3Cc3ccco3)C(C)C)cc2c1", "note": "(stereo not drawn)", "Potency": "inconclusive: 10 µM [inhibitor, partial curve, poor fit]"}, {"smiles": "Cc1ccc(S(=O)(=O)N(C)c2ccc(C(=O)NCc3ccccc3F)cc2)cc1", "Potency": "inconclusive: 12.6 µM [inhibitor, single point]"}, {"smiles": "COc1cc(OC)c(/C=N/NC(=O)c2ccc([N+](=O)[O-])cc2)cc1Br", "Potency": "inconclusive: 0.0073 µM [inhibitor, full curve, poor fit]"}, {"smiles": "COC(=O)c1cn(NC(=O)Cn2nc([N+](=O)[O-])c(Cl)c2C)c(=O)c2ccccc12", "Potency": "inconclusive: 2.82 µM [inhibitor, single point]"}, {"smiles": "CCn1c(COc2c(C)cccc2C)nnc1SCc1nc2ccccc2c(=O)[nH]1", "Potency": "inconclusive: 35.5 µM [inhibitor, single point]"}, {"smiles": "CC(C)COc1ccc(Cc2c(O)[nH]c(=S)[nH]c2=O)cc1", "Potency": "inconclusive: 0.112 µM [inhibitor, full curve, poor fit]"}, {"smiles": "O=C(Cc1ccccc1)c1ccc2c(c1)OCCO2", "Potency": "inconclusive: 8.91 µM [activator, partial curve, poor fit]"}, {"smiles": "CCOC(=O)c1cnn(CCOC(=O)C(C)(C)C)c1NC(=O)C(C)(C)C", "Potency": "inconclusive: 6.51 µM [activator, single point]"}, {"smiles": "Cc1ccc(S(=O)(=O)C2CS(=O)(=O)CC2O)cc1", "note": "(stereo not drawn)", "Potency": "inactive"}, {"smiles": "CCN(CC)C(=O)CCCSc1nnc(Nc2ccccc2F)s1", "Potency": "inconclusive: 12.6 µM [activator, partial curve]"}, {"smiles": "Nc1c(C(=O)NCC2CCCO2)sc2nc3c(c(-c4ccco4)c12)CC/C3=C\\c1ccco1", "note": "(stereo not drawn)", "Potency": "inconclusive: 20 µM [inhibitor, partial curve, poor fit]"}, {"smiles": "CCOC(=O)C1(Cc2ccccc2C)CCCN(C(=O)c2ccc3nccnc3c2)C1", "note": "(stereo not drawn)", "Potency": "inactive"}, {"smiles": "CCC(=Nc1ccc2c(c1)CCC2)c1c(O)n(C2CCCCC2)c(=O)[nH]c1=O", "Potency": "inactive"}, {"smiles": "COc1ccc(CCNC(=O)c2cnc3ccccn3c2=O)cc1", "Potency": "inactive"}, {"smiles": "Cc1ccc(S(=O)(=O)N(CC(O)Cn2c3ccccc3c3ccccc32)c2cccc(C(=O)NCCO)c2)cc1", "note": "(stereo not drawn)", "Potency": "inconclusive: 11.2 µM [inhibitor, single point]"}, {"smiles": "Cc1cc(C)c(C)c(S(=O)(=O)Nc2ccc(C(N)=O)cc2)c1C", "Potency": "inconclusive: 15.8 µM [inhibitor, single point]"}, {"smiles": "CCCC(c1nnnn1C1CCCC1)N1CCN(c2ccccc2F)CC1", "note": "(stereo not drawn)", "Potency": "inactive"}, {"smiles": "O=C1CNC(=O)/C1=C/c1ccccc1", "Potency": "inconclusive: 3.26 µM [inhibitor, single point]"}, {"smiles": "Cn1c(-c2ccc(C(C)(C)C)cc2)n[nH]c1=S", "Potency": "inactive"}, {"smiles": "Ic1ccccc1CN[C@@H]1C2CCN(CC2)[C@H]1C(c1ccccc1)c1ccccc1", "Potency": "active: 4.61 µM"}, {"smiles": "O=C(Nc1ccc(Cl)cc1)C1=Cc2cc(Cl)ccc2OC1", "Potency": "inactive"}, {"smiles": "COc1ccc(C)cc1S(=O)(=O)N(CC(=O)Nc1cc([N+](=O)[O-])ccc1C)c1ccc(C)c(C)c1", "Potency": "inconclusive: 25.1 µM [inhibitor, partial curve, poor fit]"}, {"smiles": "Cc1cc(C)c(C(=O)c2ccc(C(=O)N3CCCCC3)cc2)c(C)c1", "Potency": "inactive"}, {"smiles": "O=C(c1ccc([N+](=O)[O-])cc1)N1CCc2ccccc21", "Potency": "inactive"}, {"smiles": "COc1cc(NCCCCCCN)c2ncccc2c1OC", "Potency": "inconclusive: 17.8 µM [inhibitor, single point]"}, {"smiles": "Cc1ccc(CSCc2ccc(C(=O)NCCC(C)C)o2)cc1", "Potency": "inconclusive: 35.5 µM [inhibitor, single point]"}, {"smiles": "Cc1cc(C)n2nc(CC(=O)NNC(=O)c3ccc(N(C)C)cc3)nc2n1", "Potency": "inconclusive: 5.62 µM [activator, single point]"}, {"smiles": "COc1ccc(/C=N/NC(=O)c2cccc(NC(=O)c3ccc(F)cc3)c2)c(C(=O)O)c1OC", "Potency": "inconclusive: 22.4 µM [activator, single point]"}, {"smiles": "COc1ccccc1Nc1ccc2c(O)cc(S(=O)(=O)O)cc2c1", "Potency": "inconclusive: 25.1 µM [inhibitor, single point]"}, {"smiles": "COCCCNc1nc2c(-c3cccc(Br)c3)nnn2c2ccccc12", "Potency": "inactive"}, {"smiles": "Cc1nn(-c2nnc(NC3CCCCC3)nn2)c(C)c1Br", "Potency": "active: 3.55 µM"}, {"smiles": "CN1CCN(C(=O)/C(=C/c2cccs2)NC(=O)c2cccs2)CC1", "Potency": "inconclusive: 0.112 µM [activator, full curve, poor fit]"}, {"smiles": "CCOc1ccc(NC(=O)c2cc3nc(-c4ccc(OC)cc4)cc(C(F)(F)F)n3n2)cc1", "Potency": "inconclusive: 3.16 µM [activator, single point]"}, {"smiles": "OCCCc1nc2n(n1)C(c1ccccc1)C=C(c1ccc(F)cc1)N2", "note": "(stereo not drawn)", "Potency": "inactive"}, {"smiles": "Cc1c(NC(=O)Cc2ccccc2)cccc1-c1nc2cccnc2s1", "Potency": "inconclusive: 3.16 µM [inhibitor, single point]"}, {"smiles": "Cc1cc(NC(=O)COC(=O)C2CCN(S(=O)(=O)c3ccccc3)CC2)c([N+](=O)[O-])cc1C", "Potency": "inactive"}, {"smiles": "CCCCn1c(N)c(N(CC(C)C)C(=O)CSc2nnc(-c3ccc(Cl)cc3)o2)c(=O)[nH]c1=O", "Potency": "inactive"}, {"smiles": "COc1ccc(NC(=O)c2ccc3c(c2)C(=O)N(Cc2ccncc2)C3=O)cc1S(N)(=O)=O", "Potency": "inconclusive: 11.2 µM [inhibitor, partial curve, poor fit]"}, {"smiles": "COc1ccccc1CC(=O)Nc1cc2oc3ccccc3c2cc1OC", "Potency": "inconclusive: 25.9 µM [inhibitor, single point]"}, {"smiles": "Cc1cc(C)nc(NC(=O)c2c(-c3ccccc3Cl)noc2C)c1", "Potency": "inconclusive: 12.6 µM [inhibitor, single point]"}, {"smiles": "CCC(NC(=O)N(Cc1ccccc1)Cc1ccc2c(c1)OCO2)(C(F)(F)F)C(F)(F)F", "Potency": "inconclusive: 32.6 µM [inhibitor, single point]"}, {"smiles": "Cc1ccc(C(=O)N2CCN(c3ccc(NC(=O)Cc4ccccc4)cc3)CC2)cc1", "Potency": "inactive"}]}]}
